{"source": "PubChem BioAssay AID651640", "about": "(Broad Institute, 2012)", "note": "In all, about 350,000 compounds went through this assay and about 6,000 (1.7%) were called active. The shares of active, inactive and inconclusive entries below differ from those in the screen. Cut-off read from the data, not from the text of the source: active = CPE inhibition above about 20% (passing the limit was not always enough); inconclusive = no clear call, values can overlap the other calls; tested in BHK-21 cells. More than one record can exist for a structure, and the calls need not agree."}
{"test": "protection of cells from dengue 2 killing – plate reader, single concentration, primary screen (AID 651640);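 note: 0% = median of neutral control wells and 100% = median of positive control wells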", "settings": "DENV2-infected cells, cytopathic effect rescue, at 9.99 µM, active compounds read high"}
{"smiles": "C=CCn1c(Cc2cccs2)nnc1SCC(=O)NC1CC1", "CPE inhibition": "inconclusive: 30.4%"}
{"smiles": "CCCNC(=O)Nc1ccc2c(c1)OC[C@H](C)N(C(=O)c1ccccc1F)C[C@@H](C)[C@H](OC)CN(C)C2=O", "CPE inhibition": "active: 40.1%"}
{"smiles": "COc1ccc(CC(=O)c2ccc(O)cc2O)cc1", "CPE inhibition": "active: 75.7%"}
{"smiles": "O=C(CCc1ccccc1)N1CCCC1", "CPE inhibition": "inconclusive: 39.4%"}
{"smiles": "Cc1ccc(NC2CCCN(C(=O)CCN3CCCCO3)C2)cc1C", "note": "(configuration not stated)", "CPE inhibition": "inconclusive: 27.4%"}
{"smiles": "NC(=O)c1cc2cc(Cl)ccc2oc1=Nc1cccc(C(F)(F)F)c1", "CPE inhibition": "active: 66.1%"}
{"smiles": "CC1(C2(O)CCCCC2)NCCc2ccccc21", "note": "(configuration not stated)", "CPE inhibition": "inconclusive: 40.7%"}
{"smiles": "C[C@H]1CN([C@@H](C)CO)C(=O)c2cc(NS(=O)(=O)c3ccc(F)cc3)ccc2O[C@H]1CN(C)Cc1ccccc1", "CPE inhibition": "active: 47.1%"}
{"smiles": "O=C(C[C@@H]1C[C@H]2c3cc(NC(=O)Nc4ccc(C(F)(F)F)cc4)ccc3O[C@H]2[C@@H](CO)O1)NCc1cccnc1", "CPE inhibition": "inconclusive: 33.5%"}
{"smiles": "C[C@@H]1CN([C@@H](C)CO)C(=O)c2cc(NS(C)(=O)=O)ccc2O[C@@H](C)CCCCO[C@@H]1CN(C)S(=O)(=O)c1ccc(Cl)cc1", "CPE inhibition": "active: 20.3%"}
{"smiles": "Cc1ccc(NC(=O)CSCC(=O)N(C)CC(=O)Nc2c(C)cccc2C)cc1", "CPE inhibition": "inconclusive: 41%"}
{"smiles": "C[C@H](CO)N1C[C@H](C)[C@H](CN(C)C(=O)CCCN(C)C)OCCCC[C@H](C)Oc2ccc(NS(=O)(=O)c3ccc(Cl)cc3)cc2C1=O", "CPE inhibition": "active: 40.8%"}
{"smiles": "CN(C)C(=O)c1ccc(NC(=O)CSc2nnc(-c3ccc4c(c3)OCO4)o2)cc1", "CPE inhibition": "inconclusive: 50.1%"}
{"smiles": "c1ccc(-c2ccc(C3[C@H]4CNC[C@@H]3N4Cc3ccccn3)cc2)cc1", "note": "(some centres not stated)", "CPE inhibition": "inconclusive: 24.2%"}
{"smiles": "CCOC(=O)N1CCN(C2=C(NS(=O)(=O)c3ccc(C)cc3)C(=O)c3ccccc3C2=O)CC1", "CPE inhibition": "inactive: -1.8%"}
{"smiles": "Cn1cnc(CCNC(=O)C[C@@H]2CC[C@H]3[C@@H](COC[C@H](O)CN3C(=O)Nc3ccccc3)O2)c1", "CPE inhibition": "inactive: 1.35%"}
{"smiles": "COc1cc(/C=N/NC(=O)c2ccc(CN3C(=O)c4cccc5cccc3c45)cc2)cc(OC)c1O", "CPE inhibition": "inactive: -0.526%"}
{"smiles": "C[C@H](NC(=O)C[C@@H]1C[C@H]2c3cc(NC(=O)C4CCOCC4)ccc3O[C@H]2[C@@H](CO)O1)c1ccccc1", "CPE inhibition": "inconclusive: 62%"}
{"smiles": "O=C(N/N=C/c1ccc(N2CCCC2)c([N+](=O)[O-])c1)c1cccnc1", "CPE inhibition": "inactive: 9%"}
{"smiles": "COc1cccc(NC(=O)N(C)C[C@H]2Oc3ncc(C4=CCCCC4)cc3C(=O)N([C@H](C)CO)C[C@@H]2C)c1", "CPE inhibition": "inconclusive: 21.1%"}
{"smiles": "Cc1ccccc1S(=O)(=O)N1CC[C@@H]2[C@H]1c1cc(Br)ccc1N(C)[C@H]2CO", "CPE inhibition": "active: 66.3%"}
{"smiles": "COc1ccccc1S(=O)(=O)N1[C@@H]2CNC[C@H]1[C@H]2c1ccc(-c2ccccc2C)cc1", "CPE inhibition": "inactive: 1.27%"}
{"smiles": "Cc1ccc(CN(C)C[C@H]2OCc3cnnn3CCCC(=O)N([C@@H](C)CO)C[C@@H]2C)cc1", "CPE inhibition": "inconclusive: 28.4%"}
{"smiles": "C[C@H](CO)N1C[C@H](C)[C@H](CN(C)C(=O)Nc2ccc(-c3cccs3)cc2)OCc2cnnn2CCCC1=O", "CPE inhibition": "inconclusive: 23.5%"}
{"smiles": "O=[N+]([O-])c1ccc2c(c1)C(N1CCN(CCO)CC1)Cc1ccc(F)cc1S2", "note": "(configuration not stated)", "CPE inhibition": "inactive: 16.5%"}
{"smiles": "Cc1ccc(S(=O)(=O)N2C[C@@H](O)COC[C@H]3O[C@@H](CC(=O)NCCN4CCCCC4)CC[C@@H]32)cc1", "CPE inhibition": "active: 67.2%"}
{"smiles": "CO[C@@H]1CN(C)C(=O)c2ccc(NS(=O)(=O)c3cn(C)cn3)cc2OC[C@H](C)N(Cc2cccc(F)c2)C[C@@H]1C", "CPE inhibition": "inactive: 5.4%"}
{"smiles": "CCc1nc2ccc(Cc3ccc4nc(CC)[nH]c4c3)cc2[nH]1", "CPE inhibition": "inconclusive: 21.8%"}
{"smiles": "COc1cc2c(cc1NC(=O)C(Cl)Cl)-c1ccc(NC(=O)C(Cl)Cl)cc1C2", "CPE inhibition": "inconclusive: 32.1%"}
{"smiles": "OC(c1ccccc1)(c1ccccc1)C1CCN(CCCOc2ccccn2)CC1", "CPE inhibition": "inconclusive: 34.4%"}
{"smiles": "COc1ccc(C(=O)C[C@@H]2OC[C@H](C)N2S(=O)(=O)c2ccc(C)cc2)cc1OC", "CPE inhibition": "active: 56.9%"}
{"smiles": "COc1ccc(NC(=O)N[C@@H]2C=C[C@@H](CC(=O)NC3CCC3)O[C@H]2CO)cc1", "CPE inhibition": "inactive: -3.72%"}
{"smiles": "COc1cc(/C=C(\\NC(C)=O)C(=O)Nc2ccccc2C)ccc1OC(C)=O", "CPE inhibition": "active: 20.7%"}
{"smiles": "CC(CCc1ccccc1)NCC(O)c1cccc([N+](=O)[O-])c1", "note": "(configuration not stated)", "CPE inhibition": "inconclusive: 21%"}
{"smiles": "O=C(CSc1nnnn1C1CC1)Nc1cc(S(=O)(=O)N2CCCC2)ccc1Cl", "CPE inhibition": "inactive: 0.748%"}
{"smiles": "O=C(C=Cc1ccccc1)c1cccs1", "CPE inhibition": "inactive: 2.09%"}
{"smiles": "CS(=O)(=O)c1cccc(C(=O)Nc2ccc(-c3nc4ccccc4[nH]3)cc2)c1", "CPE inhibition": "inconclusive: 20.4%"}
{"smiles": "Cc1ccc(S(=O)(=O)N(C)C[C@H]2Oc3ccc(NS(=O)(=O)c4cccs4)cc3CC(=O)N([C@@H](C)CO)C[C@@H]2C)cc1", "CPE inhibition": "inactive: 1.11%"}
{"smiles": "CNC(=O)C[C@@H]1CC[C@H]2[C@@H](COc3ccc(NC(=O)c4ccccc4OC)cc3C(=O)N2C)O1", "CPE inhibition": "inactive: -6.72%"}
{"smiles": "CCCCn1c(SCC(=O)Nc2cc(C)on2)nnc1-c1cccs1", "CPE inhibition": "inconclusive: 29.5%"}
{"smiles": "COc1ccc(NC(=O)Nc2ccc3c(c2)C(=O)N([C@H](C)CO)C[C@H](C)[C@@H](CN(C)S(=O)(=O)c2ccc(OC)cc2)O3)cc1", "CPE inhibition": "active: 26.4%"}
{"smiles": "O=C(NC1CCCCC1)N[C@H]1C=C[C@@H](CC(=O)N2CCOCC2)O[C@@H]1CO", "CPE inhibition": "active: 108%"}
{"smiles": "Cc1ccccc1OCC(=O)N/N=C/c1ccc([N+](=O)[O-])o1", "CPE inhibition": "inactive: 5.39%"}
{"smiles": "CC[C@@]12C(=O)N(c3cccc(Br)c3)C(=O)N1[C@H](c1ccc(OC)cc1)[C@@H]1C(=O)N(C(C)(C)C)C(=O)[C@@H]12", "CPE inhibition": "inconclusive: 35.3%"}
{"smiles": "O=C(C1CCN(S(=O)(=O)c2c(Cl)cccc2Cl)CC1)N1CCCC1", "CPE inhibition": "inconclusive: 41.5%"}
{"smiles": "C[C@@H]1CN([C@@H](C)CO)C(=O)c2cccc(NC(=O)CCCCCC(=O)Nc3ccccc3N)c2O[C@@H]1CN(C)Cc1ccc2c(c1)OCO2", "CPE inhibition": "active: 49.5%"}
{"smiles": "COC(=O)c1c(NC(=O)CCCC(=O)O)sc2c1CCCCC2", "CPE inhibition": "inconclusive: 24.4%"}
{"smiles": "O=C(Nc1ccc2c(c1)CCC2)c1ccccc1", "CPE inhibition": "active: 44.9%"}
{"smiles": "Cc1noc(C)c1NC(=O)Nc1ccc2c(c1)C(=O)N([C@@H](C)CO)C[C@@H](C)[C@H](CN(C)Cc1ccncc1)OCCCC[C@H](C)O2", "CPE inhibition": "inactive: -1.41%"}
{"smiles": "Cc1noc(C)c1S(=O)(=O)Nc1ccc2c(c1)C(=O)N([C@@H](C)CO)C[C@H](C)[C@@H](CN(C)S(C)(=O)=O)O2", "CPE inhibition": "inconclusive: 40.5%"}
{"smiles": "COc1ccc(-n2nnnc2CNC(=O)C2CC(=O)N(c3ccc(F)cc3)C2)cc1", "note": "(configuration not stated)", "CPE inhibition": "inconclusive: 27.1%"}
{"smiles": "COCCn1c(-c2ccc(-c3ccc([N+](=O)[O-])cc3Br)o2)nc2c1c(=O)[nH]c(=O)n2CC(C)C", "CPE inhibition": "inactive: 0.686%"}
{"smiles": "CCCn1c(SCC(=O)NC2CCCCC2)nnc1-c1ccco1", "CPE inhibition": "inconclusive: 35%"}
{"smiles": "Cc1nc(Cl)sc1C(=O)NC(C)c1ccc(Cl)cc1", "note": "(configuration not stated)", "CPE inhibition": "inconclusive: 34.7%"}
{"smiles": "Cc1ccc(S(=O)(=O)N(C)C[C@H]2OCCCC[C@@H](C)Oc3ccc(NC(=O)Nc4ccc(C(F)(F)F)cc4)cc3C(=O)N([C@@H](C)CO)C[C@H]2C)cc1", "CPE inhibition": "active: 24.5%"}
{"smiles": "Cc1noc(C)c1S(=O)(=O)N(C)C[C@H]1OCCCC[C@H](C)Oc2ccc(N(C)C)cc2C(=O)N([C@@H](C)CO)C[C@@H]1C", "CPE inhibition": "inactive: -1.33%"}
{"smiles": "O=C(CN1CCOCC1)NCC[C@H]1CC[C@@H](NC(=O)c2ccc3c(c2)OCO3)[C@@H](CO)O1", "CPE inhibition": "inactive: -1.77%"}
{"smiles": "C[C@H]1CN([C@@H](C)CO)C(=O)c2cc(-c3cccnc3)cnc2O[C@H]1CN(C)C(=O)C1CCC1", "CPE inhibition": "active: 23.7%"}
{"smiles": "C=Cc1ccc(Cn2c(C)c(C(=O)NCc3cccc(C(F)(F)F)c3)sc2=O)cc1", "CPE inhibition": "active: 57.1%"}
{"smiles": "O=C1N[C@H](Cc2ccccc2)COCc2cn(nn2)CC[C@H]1Cc1ccccc1", "CPE inhibition": "inconclusive: 25.2%"}
{"smiles": "CCC(=O)N1[C@@H]2c3ccc(C4=CCCC4)c(=O)n3C[C@H]1[C@H](CO)[C@H]2C(=O)N[C@@H](C)c1ccccc1", "CPE inhibition": "inconclusive: 48.2%"}
{"smiles": "COc1cc(O)c(C(C)=O)c2c1C=CC(C)(C)O2", "CPE inhibition": "active: 26.7%"}
{"smiles": "CO[C@@H]1CN(C)C(=O)c2cc(NS(=O)(=O)c3ccccc3)ccc2OC[C@H](C)N(C)C[C@H]1C", "CPE inhibition": "active: 20.9%"}
{"smiles": "CN(C)S(=O)(=O)c1ccc(NC(=O)Cn2nc(-c3ccc4c(c3)OCCO4)ccc2=O)cc1", "CPE inhibition": "inconclusive: 45.5%"}
{"smiles": "O=C(c1ccncc1)N1C[C@@H]2[C@H](c3ccccc31)[C@H](CO)N2C(=O)Nc1ccccc1Cl", "CPE inhibition": "inactive: 14.5%"}
{"smiles": "CC1C(=O)N(Cc2ccc(F)cc2)c2ccccc2N1C(=O)c1c(F)cccc1F", "note": "(configuration not stated)", "CPE inhibition": "inconclusive: 54.9%"}
{"smiles": "CC(C)C#Cc1cnc2c(c1)C(=O)N([C@H](C)CO)C[C@@H](C)[C@@H](CN(C)C(=O)Cc1ccccn1)O2", "CPE inhibition": "inactive: 0.288%"}
{"smiles": "S=C(SSC(=S)N1CCOCC1)N1CCOCC1", "CPE inhibition": "active: 24.2%"}
{"smiles": "CCCC1=Nc2cc(C(=O)N3CCN(c4ccccn4)CC3)ccc2Sc2ccc(C)cc21", "CPE inhibition": "inconclusive: 23.4%"}
{"smiles": "CN(C)C(=O)c1cccc(-c2ccc(C3[C@@H]4CN(Cc5nccs5)C[C@H]3N4)cc2)c1", "note": "(some centres not stated)", "CPE inhibition": "inconclusive: 23.2%"}
{"smiles": "Cn1c(C(=O)NC2CC2)cc2c(=O)n(C)c3ccccc3c21", "CPE inhibition": "inconclusive: 22.5%"}
{"smiles": "Cc1cc(Br)ccc1NC(=O)CN(C)C(=O)c1cc(S(=O)(=O)N(C)C)ccc1N1CCCC1", "CPE inhibition": "inconclusive: 20.8%"}
